This passage reports binding results from patent publication US20250312444A1.

The chains behind the UniProt entries cited, without tags or fusion partners. Residues count along the entry.
UniProt P02769, residues 25-607: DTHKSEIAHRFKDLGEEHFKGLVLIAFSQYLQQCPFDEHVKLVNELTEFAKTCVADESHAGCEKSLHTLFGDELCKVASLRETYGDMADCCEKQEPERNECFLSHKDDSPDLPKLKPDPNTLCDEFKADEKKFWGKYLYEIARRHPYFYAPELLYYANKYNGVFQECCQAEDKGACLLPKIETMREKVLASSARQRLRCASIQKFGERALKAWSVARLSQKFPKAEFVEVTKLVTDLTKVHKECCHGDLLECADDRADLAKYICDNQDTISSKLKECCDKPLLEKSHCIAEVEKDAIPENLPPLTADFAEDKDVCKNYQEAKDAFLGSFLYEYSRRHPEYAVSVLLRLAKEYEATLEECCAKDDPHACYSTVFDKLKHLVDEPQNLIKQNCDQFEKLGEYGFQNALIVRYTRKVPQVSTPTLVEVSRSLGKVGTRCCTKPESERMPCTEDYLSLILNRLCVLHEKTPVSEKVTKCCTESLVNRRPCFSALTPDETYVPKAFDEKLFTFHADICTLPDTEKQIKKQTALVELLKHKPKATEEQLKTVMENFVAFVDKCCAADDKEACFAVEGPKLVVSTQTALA
UniProt P49822, residues 25-608: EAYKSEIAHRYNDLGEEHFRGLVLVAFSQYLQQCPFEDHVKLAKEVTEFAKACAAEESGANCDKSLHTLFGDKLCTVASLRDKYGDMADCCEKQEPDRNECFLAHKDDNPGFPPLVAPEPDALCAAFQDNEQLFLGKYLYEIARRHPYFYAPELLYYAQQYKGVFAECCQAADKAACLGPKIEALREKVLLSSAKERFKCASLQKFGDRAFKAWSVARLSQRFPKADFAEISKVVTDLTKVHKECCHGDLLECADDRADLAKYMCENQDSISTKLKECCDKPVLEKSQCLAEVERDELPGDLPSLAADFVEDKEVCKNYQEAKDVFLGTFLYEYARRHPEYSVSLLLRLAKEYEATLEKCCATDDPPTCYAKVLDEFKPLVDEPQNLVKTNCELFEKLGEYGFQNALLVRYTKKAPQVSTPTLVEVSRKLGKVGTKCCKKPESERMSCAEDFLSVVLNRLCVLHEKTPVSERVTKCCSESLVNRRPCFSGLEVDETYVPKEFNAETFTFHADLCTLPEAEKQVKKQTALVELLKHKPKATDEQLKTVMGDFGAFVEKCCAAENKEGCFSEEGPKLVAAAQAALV

Substitutions are numbered along the chain they refer to. These are yes or no findings as the source states them, for the method shown. Some binding calls cover weakened binding; strength is not graded here.

For assay [1], the target named is bovine serum albumin (bovine) (UniProt P02769). Nature of the assay: SPR Biacore T200, fusion protein captured by anti-VHH antibody, albumin as analyte. For orientation: SPR reads the build-up and loss of mass on a sensor chip optically.
In the next assay the target is dog serum albumin (dog) (UniProt P49822). Nature of the assay: SPR Biacore T200, albumin amine-coupled, fusion protein as analyte.

B1: 0052 (protein)
chain: EVQLLESGGGLVQPGGSLRLSCAASGFTFLTSCMGWFRQAPGKEREGVSSIYTVGGSTFYTNSVKGRFTISRDNSKNTLYLQMNSLRAEDTAVYYCAAGSPARCRLRDPTTFDYWGQGTLVTVSSPGPAPGPAPGPAPGPAPGPAPGPAPGPAPGPASWMEEVIKLCGRELVRAQIAICGMSTWSGGGSGGSGGGQLYSALANKCCHVGCTKRSLARFC
For B1, the binding entry in assay [1] is “binds”.

B2: 0051 (protein)
chain: EVQLLESGGGLVQPGGSLRLSCAASGFTFLTSCMGWFRQAPGKEREGVSSIYTVGGSTFYTNSVKGRFTISRDNSKNTLYLQMNSLRAEDTAVYYCAAGSPARCRLRDPTTFDYWGQGTLVTVSSGGGGQGGGGQGGGGQGGGGQGGGGQSWMEEVIKLCGRELVRAQIAICGMSTWSGGGSGGSGGGQLYSALANKCCHVGCTKRSLARFC
For the molecule B2, the binding result (in the assay with dog serum albumin (dog); in assay [1]) was “binds” in each case.

B3: 0064 (protein)
chain: B2 chain with F27N, F29Y, R87Q, A88P
Regarding B3, the binding result in assay [1] is on record as “binds”.

B4: 0065 (protein)
chain: B2 chain with A88P
Regarding B4, in assay [1], the binding entry is listed as “binds”.
